## Screening data, single-dose tests

Source: ChEMBL document CHEMBL3988442, “University of Dundee, Small-Polar-MMV Screening Library” (2021).

Mtb cholesterol medium: 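Phenotypic screen: M. tuberculosis growth, cholesterol and DPPC medium, 4 days; the read-out is not stated. Compounds at 50 µM. Direction is inferred from retests: higher values go with more growth inhibition. About 69,000 compounds were tested under these conditions; 0.54% (about 370) showed 50% or more at least once.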
Mtb glucose medium: 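Growth of Mycobacterium tuberculosis over 3 days (7H9 medium with glucose and tyloxapol); the read-out is not stated. Concentration: 50 µM. The record gives no direction; compounds that gave an IC50 in retests scored well above the rest, so higher reads as more growth inhibition. Size under these conditions: about 69,000 compounds, about 760 of them at 50% or above in at least one test.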

Each number is a percent effect as filed. The controls that fix the scale are not given in the record; negative values are as filed. This is an unselected part of the compounds tested. Two or more numbers in one place are separate tests of the same structure; such repeats can differ widely.

{"structure": "COc1ccc(Cl)cc1C(=O)N1C[C@@H](NC(=O)N(C)C)[C@H](C(C)C)C1", "Mtb cholesterol medium": 7.958, "Mtb glucose medium": -41.33}
{"structure": "Cc1ccc(C(=O)NCC(c2cnn(C)c2)N(C)C)c(O)c1", "stereo": "centres undefined", "Mtb cholesterol medium": -10.02, "Mtb glucose medium": -10.8}
{"structure": "O=C(O)C(F)(F)F.O=C(O)C(F)(F)F.[H][C@@]12C[C@H](C(=O)NCc3cccnc3)[C@@]([H])(CN(Cc3cccc(C)c3)C1)O2", "Mtb cholesterol medium": -26.02, "Mtb glucose medium": "-45.57 and -1.313"}
{"structure": "COc1cccc(-c2noc3c2CN(c2ncnc4c2CCC4)CC3)c1", "Mtb cholesterol medium": 21.49, "Mtb glucose medium": 21.03}
{"structure": "CC(C)N(C)C(=O)C1CSCN1S(=O)(=O)c1cccs1", "stereo": "centres undefined", "Mtb cholesterol medium": 7.128, "Mtb glucose medium": -20.99}
{"structure": "Cc1cc(CN2CCC(CNS(=O)(=O)c3ccc(C)s3)CC2)c(C)o1", "Mtb cholesterol medium": -12.22, "Mtb glucose medium": "-21.04 and 6.796"}
{"structure": "COc1ccc(CNC(C)c2ccc3[nH]c(=O)[nH]c3c2)cc1", "stereo": "centres undefined", "Mtb cholesterol medium": -3.965, "Mtb glucose medium": 15.87}
{"structure": "C[C@@H]1CN(C2CCN(c3ccccc3F)CC2)C[C@]1(C)O", "Mtb cholesterol medium": 6.391, "Mtb glucose medium": "31.75 and 9.082"}
{"structure": "O=C(C1CCOCC1)N1CC[C@@H](O)[C@@H]1Cc1ccccc1", "Mtb cholesterol medium": "0.5116 and -2.774", "Mtb glucose medium": -42.25}
{"structure": "CCC(CC)C(=O)N(C)CC(=O)Nc1ccc(Br)cn1", "Mtb cholesterol medium": -1.033, "Mtb glucose medium": 7.661}
{"structure": "CCc1ccc(CN2Cc3nccn3CC(Cn3cncn3)C2)o1.O=C(O)C(F)(F)F", "stereo": "centres undefined", "Mtb cholesterol medium": 3.874, "Mtb glucose medium": -18.22}
{"structure": "Cc1nnc(NC(=O)CN2CCCC(c3ccn[nH]3)C2)s1", "stereo": "centres undefined", "Mtb cholesterol medium": -0.4484, "Mtb glucose medium": -8.195}
{"structure": "CN(c1nc(Cn2cnccc2=O)cs1)C1CC1", "Mtb cholesterol medium": -15.28, "Mtb glucose medium": 20.23}
{"structure": "O=C(O)C1(Cc2ccc(Cl)cc2)CCN(c2ncccc2F)CC1", "Mtb cholesterol medium": 10.19, "Mtb glucose medium": "6.939 and -8.329"}
{"structure": "O=C(O)C(F)(F)F.[H][C@]12CCN(Cc3ccccc3)CC[C@@]1([H])S(=O)(=O)N(CC(=O)N(C)C)C2", "Mtb cholesterol medium": "-7.426 and 2.695", "Mtb glucose medium": "-15.39 and -7.312"}
{"structure": "c1cc(CCN2CCN(c3ccc4nncn4n3)CC2)ccn1", "Mtb cholesterol medium": -0.7053, "Mtb glucose medium": 18.57}
{"structure": "CCC(=O)NCC(=O)N(C)C(c1ccc(Cl)cc1)c1cccnc1", "stereo": "centres undefined", "Mtb cholesterol medium": -7.803, "Mtb glucose medium": -21.04}
{"structure": "CN(C)CCN1C2(CCN(Cc3nccs3)C2)c2ccccc2S1(=O)=O.O=C(O)C(F)(F)F.O=C(O)C(F)(F)F", "stereo": "centres undefined", "Mtb cholesterol medium": "-4.689 and -11.43", "Mtb glucose medium": -8.408}
{"structure": "Cc1cc(C(C)NCCN2CCC(N(C)C)CC2)c(C)s1", "stereo": "centres undefined", "Mtb cholesterol medium": -11.46, "Mtb glucose medium": "8.986 and -1.958"}
{"structure": "COc1ccc(C(=O)N2C[C@@H](O)[C@H](NCCc3ncccc3C)C2)cc1", "Mtb cholesterol medium": 12.53, "Mtb glucose medium": -17.8}
{"structure": "[H][C@@]12CCN(C(=O)c3cccn3C)C[C@@]1([H])O[C@@H](c1nc(C)no1)C2", "Mtb cholesterol medium": 16.75, "Mtb glucose medium": 5.535}
{"structure": "CCS(=O)(=O)N1CCC(NC(=O)c2ccccc2O)CC1", "Mtb cholesterol medium": 10.57, "Mtb glucose medium": 29.98}
{"structure": "Cc1c(C)n2c(SCC(=O)N3CCCCC3)nnc2[nH]c1=O", "Mtb cholesterol medium": -18.13, "Mtb glucose medium": "-21.21 and -4.945"}
{"structure": "CCOc1cc(F)ccc1NC1CCN(CC(F)(F)F)C1=O", "stereo": "centres undefined", "Mtb cholesterol medium": 29.57, "Mtb glucose medium": 55.56}
{"structure": "CS(=O)(=O)N1CCC2(CCN(C(=O)c3cccs3)CC2)CC1", "Mtb cholesterol medium": -10.46, "Mtb glucose medium": -1.441}
{"structure": "CCN(CC(C)C#N)C(=O)c1cccc(COc2ccc(C)nc2)c1", "stereo": "centres undefined", "Mtb cholesterol medium": 11.3, "Mtb glucose medium": 21.74}
{"structure": "O=C(CCc1nc(-c2ccccn2)no1)N1CCCC1c1ccsc1", "stereo": "centres undefined", "Mtb cholesterol medium": 0.408, "Mtb glucose medium": 15}
{"structure": "Cc1nn(CCC(=O)N2CCCC(OCc3cccnc3)C2)c(C)c1C", "stereo": "centres undefined", "Mtb cholesterol medium": -3.792, "Mtb glucose medium": -5.456}
{"structure": "COc1c(CNCCC(=O)Nc2cccc(C)n2)c(C)nn1C", "Mtb cholesterol medium": -2.037, "Mtb glucose medium": "1.017 and 8.117"}
{"structure": "COc1ccc(CN(Cc2cc(C)no2)C2CC2)cc1", "Mtb cholesterol medium": 1.77, "Mtb glucose medium": 23.65}
{"structure": "CCCc1nc(C(=O)N2CCn3nc(C(=O)OC)cc3C2)cs1", "Mtb cholesterol medium": -11.28, "Mtb glucose medium": -19.94}
{"structure": "Cc1nc(C)n(CC2CCCN2CC(=O)NC2CCOCC2)n1", "stereo": "centres undefined", "Mtb cholesterol medium": -18.82, "Mtb glucose medium": 20.76}
{"structure": "CC(NCc1cccnc1)c1ccc(OCC(=O)NC2CC2)cc1", "stereo": "centres undefined", "Mtb cholesterol medium": 10.56, "Mtb glucose medium": -6.797}
{"structure": "COc1cc(F)c(S(=O)(=O)N2CCN(C)Cc3ccccc32)cc1OC", "Mtb cholesterol medium": -1.801, "Mtb glucose medium": 14.52}
{"structure": "CCOc1ccc(CN2CCOCC2c2[nH]ncc2C)cc1CO", "stereo": "centres undefined", "Mtb cholesterol medium": "1.829 and 2.502", "Mtb glucose medium": -15.63}
{"structure": "CC(Cc1ccc2c(c1)OCO2)c1cn(CCN2CCCC2)nn1", "stereo": "centres undefined", "Mtb cholesterol medium": -1.619, "Mtb glucose medium": 20.9}
{"structure": "O=C(O)C(F)(F)F.[H][C@@]12COC[C@]1(CNC(=O)c1cccn1C)CN(Cc1nccs1)C2", "Mtb cholesterol medium": -24.31, "Mtb glucose medium": -9.135}
{"structure": "[H][C@]12CCCCN1CCC[C@H]2Cn1ccnc1-c1cccc2cccnc12", "Mtb cholesterol medium": -14.08, "Mtb glucose medium": -30.86}
{"structure": "O=C(O)C(F)(F)F.[H][C@]12CCN(C(=O)CCC)CC[C@@]1([H])S(=O)(=O)CCN2Cc1cccc(C)n1", "Mtb cholesterol medium": 6.712, "Mtb glucose medium": "-7.976 and -3.477"}
{"structure": "CC(NC(=O)NCC(C)(C)O)c1ccc(-c2ccncc2)cc1", "stereo": "centres undefined", "Mtb cholesterol medium": -13.68, "Mtb glucose medium": "-7.534 and -17.54"}
{"structure": "O=C(O)C(F)(F)F.O=C(O)C(F)(F)F.[H][C@@]12CCCO[C@]1([H])[C@H](N(C)Cc1ccco1)CN2Cc1ccc(F)cc1", "Mtb cholesterol medium": "-7.303 and -3.599", "Mtb glucose medium": -24.63}
{"structure": "Cc1nn(C)c2ncc(NC(=O)N(C)Cc3cnn(C)c3)cc12", "Mtb cholesterol medium": -21.82, "Mtb glucose medium": -45.4}
{"structure": "COc1cc(C)c(S(=O)(=O)CC(=O)N(C)C2CC2)cc1OC", "Mtb cholesterol medium": -37.4, "Mtb glucose medium": -19.92}

Repeated from the top, 4 entries:

| structure | Mtb cholesterol medium | Mtb glucose medium |
|---|---|---|
| `COc1ccc(Cl)cc1C(=O)N1C[C@@H](NC(=O)N(C)C)[C@H](C(C)C)C1` | 7.958% | -41.33% |
| `Cc1ccc(C(=O)NCC(c2cnn(C)c2)N(C)C)c(O)c1` (centres undefined) | -10.02% | -10.8% |
| `O=C(O)C(F)(F)F.O=C(O)C(F)(F)F.[H][C@@]12C[C@H](C(=O)NCc3cccnc3)[C@@]([H])(CN(Cc3cccc(C)c3)C1)O2` | -26.02% | -45.57% and -1.313% |
| `COc1cccc(-c2noc3c2CN(c2ncnc4c2CCC4)CC3)c1` | 21.49% | 21.03% |